The exact form of at least one protein or probe is not confirmed. For some assays here: A negative result means that nothing was seen under these conditions. For some assays here: The comparison behind a weaker result is the experiment's own reference, which may not be listed here. For some assays here: At least one verdict rests on a figure or table, not on a statement of the authors. For some assays here: Protein sequences can lack the tags named with them.

Amino acid sequences for entries named in this document (tags omitted). Residues count along the entry.
UniProt Q07820, 171-327: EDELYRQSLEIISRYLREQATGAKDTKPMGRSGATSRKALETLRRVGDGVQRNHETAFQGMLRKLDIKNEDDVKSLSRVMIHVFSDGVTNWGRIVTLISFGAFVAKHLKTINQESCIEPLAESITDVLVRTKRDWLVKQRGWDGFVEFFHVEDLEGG

The target in series [1] is T1, p73DBD (UniProt O15350).
T1 sequence (looked up): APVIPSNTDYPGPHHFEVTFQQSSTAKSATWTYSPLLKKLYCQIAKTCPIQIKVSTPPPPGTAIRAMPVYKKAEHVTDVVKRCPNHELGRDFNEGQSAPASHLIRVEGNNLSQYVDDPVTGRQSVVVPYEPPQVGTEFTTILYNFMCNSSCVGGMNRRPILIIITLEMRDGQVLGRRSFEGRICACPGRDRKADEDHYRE
The series is described as follows: EMSA. The settings on record: 10 uM p73DBD, 1 uM DNA, MCL1 10-200 uM has no effect on binding; EMSA: on ice 15+15 min, 1 uM FITC-DNA, proteins in 1x PBS pH 6.8, native TGX gel in 1x Tris/glycine; recombinant protein; residues 112-311; label: 5'-FITC on forward strand. In general terms: In EMSA bound probe runs differently from free probe, usually more slowly.

The target of series [2] is T2, p73DBD-TD (UniProt O15350).
T2 sequence (looked up): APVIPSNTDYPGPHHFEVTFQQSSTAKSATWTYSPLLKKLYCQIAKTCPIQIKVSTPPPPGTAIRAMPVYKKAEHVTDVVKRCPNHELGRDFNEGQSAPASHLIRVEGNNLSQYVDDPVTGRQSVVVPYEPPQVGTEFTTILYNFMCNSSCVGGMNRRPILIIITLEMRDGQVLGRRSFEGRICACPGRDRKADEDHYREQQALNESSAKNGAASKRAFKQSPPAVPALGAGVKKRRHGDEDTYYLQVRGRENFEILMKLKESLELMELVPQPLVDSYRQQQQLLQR
The series is described as follows: EMSA. Particulars: 10 uM p73DBD-TD, 1 uM DNA, EMSA: on ice 15+15 min, 1 uM FITC-DNA, proteins in 1x PBS pH 6.8, native TGX gel in 1x Tris/glycine, recombinant protein, residues 112-398, label: 5'-FITC on forward strand.

For a further series, the target named is MCL1 (UniProt Q07820). The series is described as follows: EMSA. The settings on record: 200 uM MCL1 alone, no p73, free DNA migration unchanged; EMSA: on ice 15+15 min, 1 uM FITC-DNA, proteins in 1x PBS pH 6.8, native TGX gel in 1x Tris/glycine; recombinant protein; label: 5'-FITC on forward strand.
Series [3] concerns the target T1, p73DBD. As to the kind of experiment: fluorescence polarization. Particulars: lower affinity than p73DBD-TD; FPA: 1x PBS pH 7.4, 30 min shaking, DNA annealed in 5 mM Tris, 5 mM KCl, 0.01% Triton, 0.2 mM DTT pH 8.6; recombinant protein; residues 112-311; label: 5'-FITC on forward strand. (In general: In fluorescence polarisation assays a small probe gives low polarisation when free and higher when bound to something large.)

The target in series [4] is T2, p73DBD-TD. The series is described as follows: fluorescence polarization. The settings on record: higher affinity than p73DBD; FPA: 1x PBS pH 7.4, 30 min shaking, DNA annealed in 5 mM Tris, 5 mM KCl, 0.01% Triton, 0.2 mM DTT pH 8.6; recombinant protein; residues 112-398; label: 5'-FITC on forward strand.

For “GAACATGTCTAGGCATGCTG (double strand) [F-GADD45 response element]”, the binding result in the series with p73DBD [1] is reported as “binds”; in the series with p73DBD-TD [2] (no MCL1) it was “binds”; with MCL1 it was “no binding”; with p73DBD [3] it was “binds more weakly”; with p73DBD-TD [4], “binds”. For the same sequence, the binding signal (% reduction of DNA binding) with p73DBD-TD [2] (MCL1 titrated 10-200 uM) amounted to 27.

“GAGCGTGTCCGGGCAGGTCG (double strand) [F-NOXA response element]”: the binding result with p73DBD [3] is “binds more weakly”; in the series with p73DBD-TD [4] it was “binds”.

Source of the values: article PMC7641127, “MCL1 binds and negatively regulates the transcriptional function of tumor suppressor p73” (Cell Death & Disease, 2020).
